# “And” between values parts separate entries of the source, which are not always exact repeats. Equal values may be shown once. About 22,000 (6.9%) of roughly 320,000 compounds were called active. This list was built around the results that the source calls inconclusive (neither active nor inactive); the mix of calls is not that of the screen. Calls come from the whole dose curve; as a rule, active = well fitted inhibition curve with a large enough effect; inconclusive = small, poorly fitted or top-dose-only effect, or another doubt; inactive = no such curve, though single readings can be large or run the other way. A potency beside an inconclusive call is a rough fit, not a confirmed value.
# Assay: Primary qHTS for delayed death inhibitors of the malarial parasite plastid, 96 hour incubation
# Conditions: P. falciparum luciferase reporter growth; series mostly up to 28.7 µM
# In short: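 Readout is luminescence from an integrated firefly luciferase in P. falciparum. Red cells, 2% hematocrit and 0.05% parasitemia final, were cultured with compound through two parasite generations (96 hours) at 37 C, 5% CO2.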
# % is set by controls: 0 for no effect and ±100 for the full control effect; potency is the fitted concentration of half-maximal effect.
SMILES,Potency,"activity change, negative = inhibition"
Cc1ccc(S(=O)(=O)NCc2ccccc2)cc1C(=O)NCC1CCCO1 (centres undefined),inactive,–
Cc1c(C(=O)N(Cc2ccco2)Cc2cccs2)oc2ccccc12,inactive,–
CC(OC(=O)C1CCCC1)C(=O)Nc1ccc(C(N)=O)cc1 (centres undefined),inactive,–
C1CCC(C(CC2CCCCN2)C2CCCCC2)CC1 (centres undefined),active: 3.38 µM and active: 9.28 µM and active: 4.15 µM,–
FC(F)(F)Sc1ccc(NC(=S)NCc2ccccc2)cc1,"inconclusive: 8.28 µM [inhibitor, partial curve]",–
N#Cc1c(-c2ccco2)ccn(Cc2ccc(F)cc2)c1=O,"inconclusive: 9.28 µM [inhibitor, partial curve, poor fit]",–
O=C(Cc1csc(NC(=O)c2ccccc2)n1)NO,"inconclusive: 14.7 µM [inhibitor, partial curve, poor fit]",–
Cn1c(=O)[nH]c(=O)c2c1nc(N1CCN(CCO)CC1)n2CCSc1nc2ccccc2s1,"inconclusive: 18.5 µM [inhibitor, single point]",–
O=C(CCNc1ccc(F)cc1)c1ccco1,"inconclusive: 10.4 µM [inhibitor, single point]",–
NC(=O)c1ccc(NC(=O)c2cc(S(=O)(=O)N3CCCCC3)ccc2N2CCOCC2)cc1,"inconclusive: 14.7 µM [inhibitor, single point]",–
Cc1ccc(-n2nc(C(=O)NCc3ccc(C)o3)c3c4ccccc4n(C)c3c2=O)cc1,"inconclusive: 2.08 µM [inhibitor, partial curve]",–
NC(=O)c1ccccc1NC(=O)CCn1c(=S)oc2ccccc21,"inconclusive: 5.22 µM [inhibitor, partial curve, poor fit]",–
O=C(CSc1nnc(Cc2ccccc2)c(=O)[nH]1)Nc1ccccc1,inactive,–
O=C(CN1C(=O)S/C(=C\c2ccc(-c3cc(C(=O)O)ccc3Cl)o2)C1=O)Nc1ccc2c(c1)OCO2,inactive,–
COc1ccccc1OCCn1cc(C(=O)c2ccco2)c2ccccc21,"inconclusive: 5.22 µM [inhibitor, partial curve, poor fit]",–
CN1CCN(c2nc3c(c(=O)[nH]c(=O)n3C)n2Cc2ccccc2)CC1,active: 0.586 µM,–
Cc1ccc(CC2C(=O)N(c3ccccc3)C(=O)C2C)cc1 (centres undefined),inactive,–
CC1(Cc2ccc3c(c2)OCO3)NC(=O)NC1=O (centres undefined),"inconclusive: 11.7 µM [inhibitor, partial curve, poor fit]",–
Cc1ccc(-c2cc(C(=O)O)c3cc(Br)ccc3n2)o1,inactive,–
Cc1ccc(C(=O)N2CCN(Cc3ccccc3)CC2)cc1S(=O)(=O)N1CCOCC1,"inconclusive: 18.5 µM [inhibitor, partial curve, poor fit]",–
O=C(c1cnsn1)N1CCC(CO)(Cc2cccc(F)c2)CC1,"inconclusive: 18.5 µM [inhibitor, single point]",–
COc1ncc(C2=CC(=O)CC(C)(C)C2)cn1,inactive,–

# Two records picked at random from those above:
SMILES,Potency,"activity change, negative = inhibition"
COc1ccccc1OCCn1cc(C(=O)c2ccco2)c2ccccc21,"inconclusive: 5.22 µM [inhibitor, partial curve, poor fit]",–
O=C(Cc1csc(NC(=O)c2ccccc2)n1)NO,"inconclusive: 14.7 µM [inhibitor, partial curve, poor fit]",–

# (list continues)

SMILES,Potency,"activity change, negative = inhibition"
COc1cccc(S(=O)(=O)NCC(=O)Nc2ccc(C(C)(C)C)cc2)c1,"inconclusive: 8.28 µM [inhibitor, partial curve, poor fit]",–
Cc1cc(F)ccc1S(=O)(=O)N1CCCCC1CCNC(=O)C(=O)NCCN1CCOCC1 (centres undefined),inactive,–
CCOc1ccc(N(CC(=O)NCc2ccc(F)cc2)C(=O)c2snc(C(N)=O)c2N)cc1,inactive,–
CCn1cc(CN2CCc3c([nH]c4ccccc34)C2c2ccc(F)c(OC)c2)c(C)n1 (centres undefined),"inconclusive: 5.86 µM [inhibitor, partial curve]",–
CC(=O)CCc1oc2c([N+](=O)[O-])cccc2c1-c1ccc(C)o1,inactive,–
CC(=O)N1C(C(=O)O)CSC1c1cccc(C)c1 (centres undefined),"inconclusive: 18.5 µM [inhibitor, single point]",–
Cc1c(C(=O)N2CCCCC2)c(S(=O)(=O)NCc2ccccc2Cl)c(C)n1C,active: 13.1 µM,–
Cc1nc2ccccc2c(=O)n1NCc1cc(Br)cs1,"inconclusive: 14.7 µM [inhibitor, partial curve, poor fit]",–
Cn1c(NC(=O)c2ccc(Cl)cc2Cl)cc(=O)n(C)c1=O,"inconclusive: 18.5 µM [inhibitor, single point]",–
CCOC(=O)C1CCN(C(=O)Cn2cnc3sc(C)c(S(=O)(=O)N4CCOCC4)c3c2=O)CC1,"inconclusive: 14.7 µM [inhibitor, partial curve, poor fit]",–
CCCOc1ccc(C(=O)Nc2cc(-c3nn4c(C)nnc4s3)ccc2C)cc1,inactive,–
Cc1nc(C(=O)N2CCCC(N3CCN(c4ccccc4C)CC3)C2)cs1 (centres undefined),"inconclusive: 16.5 µM [inhibitor, partial curve, poor fit]",–
Cc1ccc(C(=O)NCCc2nnc3ccc(SCC(=O)Nc4ccc(C)cc4C)nn23)cc1,"inconclusive: 10.4 µM [inhibitor, single point]",–
COc1ccccc1CNC(=O)CS(=O)(=O)Cc1ccccc1,active: 2.62 µM,–
COc1cc(NC(=O)CNC(c2ccccc2)c2ccccc2)cc(OC)c1OC,"inconclusive: 13.1 µM [inhibitor, partial curve, poor fit]",–
CCC(C)(C)NC(=O)C(c1ccc(C)cc1)N(CC1CCCO1)C(=O)CNC(=O)c1cccs1 (centres undefined),"inconclusive: 5.22 µM [inhibitor, partial curve, poor fit]",–
CCN1CCN(CC(=O)Nc2sc3c(c2C#N)CCC(C)C3)CC1 (centres undefined),"inconclusive: 9.28 µM [inhibitor, partial curve, poor fit]",–
O=C(c1cn(-c2ccccc2)nc1-c1cccnc1)N1CCCC(C(F)(F)F)C1 (centres undefined),"inconclusive: 13.1 µM [inhibitor, partial curve]",–
CCc1cccc(CC)c1NC(=O)CO/N=C(\N)CC(=O)NC1CCCCC1,–,inactive: -33.6% [at 5.75 µM]
COc1ccc(CNC(=O)CN2C(=O)NC(C)(c3cccc(Br)c3)C2=O)cc1 (centres undefined),"inconclusive: 1.17 µM [inhibitor, partial curve, poor fit]",–
CC(=O)NC(=O)c1ccccc1O,active: 5.36 µM,–
Cc1nnnn1/C(=C\c1ccccc1)C(=O)OCC(=O)NC1CCCCC1,"inconclusive: 8.28 µM [inhibitor, single point]",–

# Reference: PubChem BioAssay AID504834 (National Center for Advancing Translational Sciences (NCATS), 2011)
